The values that follow come from patent US20240301049A1.

The assay has as its target OX40L (human). The assay can be described thus: SPR (Biacore 8K+): F027201062 captured on immobilized HSA, analyte injected for 2 min.

These are yes or no findings as the source states them, for the method shown.

B1: F027201062 (bispecific antibody)
chain: DVQLVESGGGVVQPGGSLRLSCAASGRTFSNYAMAWFRQAPGKEREFVAVISYAGGRTYYADSVKGRFTISRDNAKNTVYLQMNSLRPEDTALYYCAAVDSPLIATHPRGYDYWGQGTLVTVSSGGGGSGGGSEVQLVESGGGVVQPGGSLRLSCAASGFTFRSFGMSWVRQAPGKGPEWVSSISGSGSDTLYADSVKGRFTISRDNSKNTLYLQMNSLRPEDTALYYCTIGGSLSRSSQGTLVTVSSGGGGSGGGSEVQLVESGGGVVQPGGSLRLSCAASGFTLAYYAIGWFRQAPGKEREGVSCISGSVGTTYYADSVKGRFTISRDNAKNTVYLQMNSLRPEDTALYYCVRSSWFDCGVQGRDLGNEYDYRGQGTLVTVSSGGGGSGGGSEVQLVESGGGVVQPGGSLRLSCTASGFTFSTADMGWFRQAPGKGREFVARISGIDGTTYYDEPVKGRFTISRDNSKNTVYLQMNSLRPEDTALYYCRSPRYADQWSAYDYWGQGTLVKVSSA
As for B1, the binding entry was “no binding (tested: 100 nM)”.
